How the values were obtained:
HEK293T cells [1] = assay: Western blot of expression level after transfection into HEK293T cells (Example 117); assay type: cell-based
HEK293T cells [2] = assay: Protein expression level in HEK293T lysates by HaloTag TMR ligand gel (Example 143); assay type: cell-based

B1: NLPoly156: purified non-luminescent polypeptide NLpoly156, compared with NLpoly11S and NanoLuc (protein)
chain: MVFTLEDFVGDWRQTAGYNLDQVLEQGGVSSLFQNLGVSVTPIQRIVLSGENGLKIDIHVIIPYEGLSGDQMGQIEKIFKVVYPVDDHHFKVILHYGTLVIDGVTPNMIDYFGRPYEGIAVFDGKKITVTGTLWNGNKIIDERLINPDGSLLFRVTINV
Expression level compared to full-length NanoLuc luciferase (HEK293T cells [1]): does not express as well as NanoLuc® luciferase (Nluc)

B2: 11S: evolved non-luminescent polypeptide variant 11S (12S-51) (protein)
chain: MVFTLEDFVGDWEQTAAYNLDQVLEQGGVSSLLQNLAVSVTPIQRIVRSGENALKIDIHVIIPYEGLSADQMAQIEEVFKVVYPVDDHHFKVILPYGTLVIDGVTPNMLNYFGRPYEGIAVFDGKKITVTGTLWNGNKIIDERLITPDGSMLFRVTINS
Expression level relative to 1-156 (HEK293T cells [2]): approximately 4 fold | Expression level compared to full-length NanoLuc luciferase (HEK293T cells [1]): expresses similarly to Nluc

B3: NanoLuc: full-length NanoLuc luciferase (Promega), SEQ ID NO: 2157 (protein)
chain: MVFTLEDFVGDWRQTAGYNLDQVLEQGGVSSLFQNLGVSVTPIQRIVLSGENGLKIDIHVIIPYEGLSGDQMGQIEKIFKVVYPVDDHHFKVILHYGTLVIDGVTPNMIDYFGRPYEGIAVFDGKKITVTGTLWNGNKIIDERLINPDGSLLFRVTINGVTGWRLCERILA
Expression level relative to 1-156 (HEK293T cells [2]): approximately 4 fold
